Data on four substances can be found in PMC3958483, “Fine Specificity and Molecular Competition in SLAM Family Receptor Signalling” (PLoS ONE, 2014).

Chains of the proteins cited; added tags and fusions are not shown.
UniProt P62993: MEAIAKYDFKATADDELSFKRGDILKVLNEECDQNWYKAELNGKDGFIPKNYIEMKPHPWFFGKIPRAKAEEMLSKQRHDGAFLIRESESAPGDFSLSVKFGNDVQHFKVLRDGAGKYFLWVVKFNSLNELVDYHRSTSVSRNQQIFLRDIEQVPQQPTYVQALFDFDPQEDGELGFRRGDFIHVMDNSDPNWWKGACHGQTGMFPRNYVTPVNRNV
UniProt P29350: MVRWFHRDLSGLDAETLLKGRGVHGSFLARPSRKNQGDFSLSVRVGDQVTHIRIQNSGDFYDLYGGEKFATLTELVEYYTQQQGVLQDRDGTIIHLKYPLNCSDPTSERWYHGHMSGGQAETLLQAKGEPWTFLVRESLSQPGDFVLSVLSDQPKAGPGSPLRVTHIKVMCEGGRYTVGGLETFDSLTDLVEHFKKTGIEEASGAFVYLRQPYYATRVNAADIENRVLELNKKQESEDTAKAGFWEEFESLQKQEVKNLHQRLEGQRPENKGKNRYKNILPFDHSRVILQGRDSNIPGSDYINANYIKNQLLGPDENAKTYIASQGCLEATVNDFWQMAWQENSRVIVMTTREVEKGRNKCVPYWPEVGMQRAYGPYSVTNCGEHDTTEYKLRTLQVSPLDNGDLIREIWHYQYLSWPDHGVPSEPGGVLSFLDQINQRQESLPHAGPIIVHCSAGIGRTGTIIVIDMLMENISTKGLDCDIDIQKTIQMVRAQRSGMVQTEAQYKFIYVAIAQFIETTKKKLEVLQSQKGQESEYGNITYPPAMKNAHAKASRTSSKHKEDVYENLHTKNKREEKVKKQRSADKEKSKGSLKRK
UniProt P41240: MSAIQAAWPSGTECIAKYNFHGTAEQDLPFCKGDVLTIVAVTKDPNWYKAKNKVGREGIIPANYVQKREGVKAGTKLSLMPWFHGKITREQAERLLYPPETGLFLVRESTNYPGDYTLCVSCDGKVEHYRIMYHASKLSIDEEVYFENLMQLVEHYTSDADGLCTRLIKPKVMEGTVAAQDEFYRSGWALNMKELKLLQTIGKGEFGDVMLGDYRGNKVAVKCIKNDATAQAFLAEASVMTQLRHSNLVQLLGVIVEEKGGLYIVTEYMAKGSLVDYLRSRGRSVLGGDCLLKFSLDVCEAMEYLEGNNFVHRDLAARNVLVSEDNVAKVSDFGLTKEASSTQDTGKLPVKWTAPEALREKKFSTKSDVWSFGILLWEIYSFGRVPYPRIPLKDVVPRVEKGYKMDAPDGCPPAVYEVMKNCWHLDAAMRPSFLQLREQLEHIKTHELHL

These are yes or no findings as the source states them, for the method shown. Binding seen in cells or lysates may run through a third protein. Here binding means that the protein was enriched with, or labelled near, the bait; the list need not be complete.

The target of this experiment is T1, CD244 ITSM1 phosphopeptide (Biotin-EFLTIpYEDVKD) (human).
T1 sequence (peptide, phosphotyrosine (pY, position 6 of the peptide); biotin on the N-terminus): EFLTIYEDVKD
Put plainly: affinity purification with mass spectrometry; streptavidin Sepharose coated with saturating biotinylated phosphopeptide or EAT-2; lysate of NK92 cells treated with 500 μM pervanadate (PBS, 1% Triton X-100, 1 mM orthovanadate); 2 hours at 4°C; eluted with glycine-HCl pH 2.5; LC-MS/MS; compared with a control bait (SHIP-1 Y865 phosphopeptide or EAT-2); only the target purified.
“Growth factor receptor-bound protein 2 (GRB2) (endogenous, NK92 cells) (from UniProt P62993 1-217)”: the binding result is listed as “binds”. Consider “SHP-1 (endogenous, NK92 cells) (from UniProt P29350 1-595) (enzyme)”, for which the binding entry is “binds”. As for “SHP-2 (endogenous, NK92 cells) (from UniProt Q06124 1-593) (enzyme)”, the entry is “binds”; as for “c-Src Tyrosine Kinase (CSK) (endogenous, NK92 cells) (from UniProt P41240 1-450) (enzyme)”, “binds”.
